According to doi:10.1101/2025.06.12.659430:
These are yes or no findings as the source states them, for the method shown. Some results given as binding are weak or reduced against the parent protein; the word gives no strength.

By UniProt entry, the sequences of proteins in these tests, tags left out. Residues count along the entry.
UniProt P09429: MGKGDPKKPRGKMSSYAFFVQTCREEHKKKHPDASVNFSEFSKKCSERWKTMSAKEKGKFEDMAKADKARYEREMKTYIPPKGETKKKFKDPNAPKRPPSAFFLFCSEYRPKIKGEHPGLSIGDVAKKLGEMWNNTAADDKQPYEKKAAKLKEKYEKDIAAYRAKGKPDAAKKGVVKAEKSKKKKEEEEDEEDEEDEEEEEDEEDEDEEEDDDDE
UniProt O00206, residues 24-631: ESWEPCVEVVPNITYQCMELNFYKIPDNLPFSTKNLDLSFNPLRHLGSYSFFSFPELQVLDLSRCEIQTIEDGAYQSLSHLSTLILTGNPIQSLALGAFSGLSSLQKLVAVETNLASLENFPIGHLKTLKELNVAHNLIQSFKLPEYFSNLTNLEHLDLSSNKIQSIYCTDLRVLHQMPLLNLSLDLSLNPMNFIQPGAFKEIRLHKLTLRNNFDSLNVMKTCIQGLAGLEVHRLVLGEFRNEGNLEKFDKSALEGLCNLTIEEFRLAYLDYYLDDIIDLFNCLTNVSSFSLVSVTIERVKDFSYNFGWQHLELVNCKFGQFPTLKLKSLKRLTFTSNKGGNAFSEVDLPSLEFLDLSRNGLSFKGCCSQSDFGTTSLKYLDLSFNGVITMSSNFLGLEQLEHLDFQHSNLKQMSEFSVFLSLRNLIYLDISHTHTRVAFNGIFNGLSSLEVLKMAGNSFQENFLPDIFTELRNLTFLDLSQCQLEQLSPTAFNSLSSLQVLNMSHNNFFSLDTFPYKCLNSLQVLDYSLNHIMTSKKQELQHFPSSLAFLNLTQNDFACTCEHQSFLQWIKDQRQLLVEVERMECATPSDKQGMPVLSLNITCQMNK

Molecular target: Disulfide HMGB1 (dsHMGB1, HMGBiotech, HM-120) (UniProt P09429)
Test: ELISA

human TLR4 (1478-TR-050, R&D), peroxidase-labeled (from UniProt O00206) (receptor)
binding: binds
